Test results taken from patent US20230070181A1.
No constants are given. Whether binding was seen depends on the method and setting. In cells and extracts the contact can be indirect. Some binding calls cover weakened binding; strength is not graded here.

Sequences of proteins named here, by UniProt entry; tags and fusion partners are left off. Residues count along the entry.
UniProt Q9H9B1, residues 2-1298: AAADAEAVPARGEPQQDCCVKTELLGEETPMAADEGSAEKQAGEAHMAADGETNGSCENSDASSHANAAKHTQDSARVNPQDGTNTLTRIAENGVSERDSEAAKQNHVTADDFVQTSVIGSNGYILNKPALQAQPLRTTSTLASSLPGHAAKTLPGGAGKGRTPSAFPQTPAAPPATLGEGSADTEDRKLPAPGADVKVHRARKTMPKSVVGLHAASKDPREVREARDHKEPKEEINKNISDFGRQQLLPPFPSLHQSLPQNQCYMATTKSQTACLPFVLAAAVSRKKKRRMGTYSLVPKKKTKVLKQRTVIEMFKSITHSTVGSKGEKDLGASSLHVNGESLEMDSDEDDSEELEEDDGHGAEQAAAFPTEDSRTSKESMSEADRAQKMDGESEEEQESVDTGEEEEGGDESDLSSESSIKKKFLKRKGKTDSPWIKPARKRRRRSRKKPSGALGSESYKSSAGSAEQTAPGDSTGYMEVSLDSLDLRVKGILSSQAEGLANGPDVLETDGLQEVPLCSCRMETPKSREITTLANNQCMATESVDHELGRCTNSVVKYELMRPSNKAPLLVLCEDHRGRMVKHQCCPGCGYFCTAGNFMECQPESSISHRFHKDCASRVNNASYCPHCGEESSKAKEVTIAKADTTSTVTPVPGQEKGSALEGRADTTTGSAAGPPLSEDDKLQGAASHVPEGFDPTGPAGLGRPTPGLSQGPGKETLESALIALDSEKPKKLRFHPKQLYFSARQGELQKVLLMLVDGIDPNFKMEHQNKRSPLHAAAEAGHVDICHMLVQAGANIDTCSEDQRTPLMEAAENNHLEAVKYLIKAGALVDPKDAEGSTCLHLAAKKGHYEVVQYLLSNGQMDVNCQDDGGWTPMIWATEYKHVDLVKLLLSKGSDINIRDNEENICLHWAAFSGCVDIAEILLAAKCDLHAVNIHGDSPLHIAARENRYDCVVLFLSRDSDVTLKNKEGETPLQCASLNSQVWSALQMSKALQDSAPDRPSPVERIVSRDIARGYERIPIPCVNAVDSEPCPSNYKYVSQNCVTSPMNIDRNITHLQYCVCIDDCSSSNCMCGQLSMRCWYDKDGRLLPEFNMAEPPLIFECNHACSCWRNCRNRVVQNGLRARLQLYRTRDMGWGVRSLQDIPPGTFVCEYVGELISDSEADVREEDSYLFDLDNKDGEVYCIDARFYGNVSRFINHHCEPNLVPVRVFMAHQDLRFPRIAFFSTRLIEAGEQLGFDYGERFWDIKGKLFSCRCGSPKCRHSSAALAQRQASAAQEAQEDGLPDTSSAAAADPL
UniProt Q96KQ7, residues 2-1210: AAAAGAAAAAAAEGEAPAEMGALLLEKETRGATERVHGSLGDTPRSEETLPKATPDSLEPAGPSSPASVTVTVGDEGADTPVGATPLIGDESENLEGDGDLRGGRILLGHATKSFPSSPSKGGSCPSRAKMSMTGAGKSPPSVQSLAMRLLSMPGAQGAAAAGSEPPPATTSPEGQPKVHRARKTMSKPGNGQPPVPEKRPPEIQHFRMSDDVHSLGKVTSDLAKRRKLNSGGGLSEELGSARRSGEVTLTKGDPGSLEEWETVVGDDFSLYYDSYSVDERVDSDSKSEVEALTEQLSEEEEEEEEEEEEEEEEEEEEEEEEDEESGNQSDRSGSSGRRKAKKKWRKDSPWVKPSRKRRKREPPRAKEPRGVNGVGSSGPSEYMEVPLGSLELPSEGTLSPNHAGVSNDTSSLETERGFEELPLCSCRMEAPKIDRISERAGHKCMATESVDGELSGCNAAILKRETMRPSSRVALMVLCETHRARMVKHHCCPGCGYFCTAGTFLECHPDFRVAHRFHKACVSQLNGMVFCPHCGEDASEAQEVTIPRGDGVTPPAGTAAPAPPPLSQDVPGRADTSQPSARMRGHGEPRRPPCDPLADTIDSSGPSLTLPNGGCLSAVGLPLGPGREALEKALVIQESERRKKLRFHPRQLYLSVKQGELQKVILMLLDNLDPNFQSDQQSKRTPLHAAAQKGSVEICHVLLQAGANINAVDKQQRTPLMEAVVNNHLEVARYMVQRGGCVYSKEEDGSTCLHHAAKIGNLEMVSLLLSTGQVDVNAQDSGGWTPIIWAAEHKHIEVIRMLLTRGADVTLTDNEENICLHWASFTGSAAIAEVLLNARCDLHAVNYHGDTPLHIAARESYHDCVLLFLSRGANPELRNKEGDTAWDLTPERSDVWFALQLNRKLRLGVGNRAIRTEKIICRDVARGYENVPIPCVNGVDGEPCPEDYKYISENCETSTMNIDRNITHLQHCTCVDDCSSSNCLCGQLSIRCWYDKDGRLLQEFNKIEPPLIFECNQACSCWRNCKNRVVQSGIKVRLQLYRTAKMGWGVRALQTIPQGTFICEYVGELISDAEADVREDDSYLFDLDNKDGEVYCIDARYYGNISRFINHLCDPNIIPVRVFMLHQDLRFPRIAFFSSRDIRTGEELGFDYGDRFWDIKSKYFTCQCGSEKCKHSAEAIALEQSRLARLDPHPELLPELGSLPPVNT

Tests used:
[1] = molecular target: GLP (H3K9 methyltransferase GLP/EHMT1), endogenous in MCF7 lysates (human) (UniProt Q9H9B1); assay: co-immunoprecipitation from MCF7 lysates, immunoblot (FIG. 7)
[2] = molecular target: histone methyltransferase G9a (H3K9 methyltransferase G9a/EHMT2), endogenous in MCF7 lysates (human) (UniProt Q96KQ7); assay: as above
[3] = molecular target: GLP (H3K9 methyltransferase GLP/EHMT1), endogenous in MCF7 lysates (human) (UniProt Q9H9B1); assay: co-immunoprecipitation from MCF7 lysates, immunoblot
[4] = molecular target: histone methyltransferase G9a (H3K9 methyltransferase G9a/EHMT2), endogenous in MCF7 lysates (human) (UniProt Q96KQ7); assay: as above
[5] = molecular target: histone methyltransferase G9a (H3K9 methyltransferase G9a/EHMT2), endogenous in MCF7 lysates (human) (UniProt Q96KQ7); assay: co-immunoprecipitation, immunoblot
[6] = molecular target: GLP (H3K9 methyltransferase GLP/EHMT1), endogenous in MCF7 lysates (human) (UniProt Q9H9B1); assay: co-immunoprecipitation (CDYL2 IP) from MCF7 lysates, immunoblot
[7] = molecular target: histone methyltransferase G9a (H3K9 methyltransferase G9a/EHMT2), endogenous in MCF7 lysates (human) (UniProt Q96KQ7); assay: as above

Measured: binding

B1: Chromodomain on Y-like 2 (CDYL2), endogenous protein in MCF7 / HEK293T cell lysates (protein)
chain: MASGDLYEVERIVDKRKNKKGKWEYLIRWKGYGSTEDTWEPEHHLLHCEEFIDEFNGLHMSKDKRIKSGKQSSTSKLLRDSRGPSVEKLSHRPSDPGKSKGTSHKRKRINPPLAKPKKGYSGKPSSGGDRATKTVSYRTTPSGLQIMPLKKSQNGMENGDAGSEKDERHFGNGSHQPGLDLNDHVGEQDMGECDVNHATLAENGLGSALTNGGLNLHSPVKRKLEAEKDYVFDKRLRYSVRQNESNCRFRDIVVRKEEGFTHILLSSQTSDNNALTPEIMKEVRRALCNAATDDSKLLLLSAVGSVFCSGLDYSYLIGRLSSDRRKESTRIAEAIRDFVKAFIQFKKPIVVAINGPALGLGASILPLCDIVWASEKAWFQTPYATIRLTPAGCSSYTFPQILGVALANEMLFCGRKLTAQEACSRGLVSQVFWPTTFSQEVMLRVKEMASCSAVVLEESKCLVRSFLKSVLEDVNEKECLMLKQLWSSSKGLDSLFSYLQDKIYEV
binds: all assays above
